Some entries share one result that the patent states for a list of compounds.
Tested on: RD29B and MAPKKK18
Assay: Effect of Lys derivatives and nitrogen-containing compounds on induction of environmental stress tolerance genes by ABA (activity level)
Assay type: in vivo, Arabidopsis thaliana
Conditions: total of induction activities of RD29B and MAPKKK18 with 1 mM compound and 0.25 μM ABA, relative to ABA alone taken as 1; >1 enhanced, 1 no effect, <1 suppressed
Description: Four to six young Arabidopsis thaliana plants grown on a 50% concentration MS (Murashige-Skoog) agar medium were transferred to a 6-well plate containing a 50% concentration MS (Murashige-Skoog) liquid medium and pre-cultured for 16 hours, then added with a treatment solution containing each amino acid alone or a treatment solution containing a combination of each amino acid and ABA, and left for 6 hours. Then, RNA was then isolated from the plants with a nucleic acid purification kit (Promega, Maxwell (registered trademark) 16 LEV simplyRNA Tissue Kit). Then, cDNA was synthesized with a cDNA synthesis reagent for real-time PCR (Toyobo, ReverTra Ace (registered trademark) qPCR RT Master Mix).
GAPDH is a glyceraldehyde-3-phosphate dehydrogenase gene and was selected as an internal standard.
Lys or each Lys derivative is used for treatment at 1 mM and ABA at 0.25 μM.

**Q.** How did the Activity level turn out when `NCCCCCN` [II-1] was run?
**A.** < 1

**Q.** How did the Activity level turn out when `Nc1ccc(C[C@H](N)C(=O)O)cc1` [AD-4] was run?
**A.** < 1
